Some of the results follow.
target: T1, OsSMF1 (Oryza sativa, UniProt Q6ZLB0 1-436); test: protein-binding microarray (RPBM); PBS, 2% BSA, 51.3 ng/ul salmon testes DNA, 50 uM zinc acetate, 200 nM TF, 25 C, 1 h; high values mean tight binding; settings: protein: recombinant; tags: N-terminal polyhistidine and DsRed monomer fusion (pET32a); chain copies: 2; label: CyDye5-dUTP incorporated in the synthesized complementary strand; 3' TTTTT single-stranded linker to array surface; dsDNA, one strand shown
T1 sequence: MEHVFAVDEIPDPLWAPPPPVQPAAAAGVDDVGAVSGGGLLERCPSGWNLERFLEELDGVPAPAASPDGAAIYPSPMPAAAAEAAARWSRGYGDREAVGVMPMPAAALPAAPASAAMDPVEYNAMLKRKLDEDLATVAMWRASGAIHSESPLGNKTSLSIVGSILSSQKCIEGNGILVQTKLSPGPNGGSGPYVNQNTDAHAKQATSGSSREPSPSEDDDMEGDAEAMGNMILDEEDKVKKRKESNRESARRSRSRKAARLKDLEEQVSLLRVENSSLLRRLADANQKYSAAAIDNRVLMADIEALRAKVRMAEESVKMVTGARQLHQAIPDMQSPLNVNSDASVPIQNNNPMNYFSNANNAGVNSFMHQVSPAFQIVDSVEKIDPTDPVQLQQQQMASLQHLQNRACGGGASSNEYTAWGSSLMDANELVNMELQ
Summary of the method: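 Ni–NTA purification followed expression in E. coli BL21-CodonPlus of transcription factors fused N-terminally to a polyhistidine tag and DsRed. At 200 nM in PBS with 2% BSA, salmon testes DNA and 50 µM zinc acetate, the protein was incubated for 1 h at 25 °C with a custom Agilent array that had been primer-extended with Cy5-dUTP and blocked with 2% BSA. After washing, the array was read on an Axon 4000B scanner. The binding signal is per-feature fluorescence intensity in arbitrary units.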

| Sequence | binding signal |
| --- | --- |
| TTCTGTTCTGACGAGACGAAGAATGTGTCTCCTTATGTGGCGGAGTCACCTAGTGCAG | 3260 fluorescence intensity (a.u.) |
| GTTTGAATAGGTCTTTCGTCCCACGTGGCATTGACGTGGCCGGAGTCACCTAGTGCAG | 45700 fluorescence intensity (a.u.) |
| TGATGGGCTGCTTGAACGGGGAGTGGCTGGCGTGGAACGACGGAGTCACCTAGTGCAG | 5160 fluorescence intensity (a.u.) |
| TTCTATCGAATTGCTTTCAGTTGCTGATGCTGCCTTGGTGCGGAGTCACCTAGTGCAG | 3160 fluorescence intensity (a.u.) |
| ACGGGCTCACCGTCACCGCGCCCAGCGGCGCCTGCTGCTCCGGAGTCACCTAGTGCAG | 4580 fluorescence intensity (a.u.) |
| CGGAGAAGTTGTACTTCGTGCTGCCCAAGGCGATGTTCATCGGAGTCACCTAGTGCAG | 3720 fluorescence intensity (a.u.) |
| ACCAAGATTGACCTCAAGTCACCTGCACACAATCAGACAACGGAGTCACCTAGTGCAG | 21200 fluorescence intensity (a.u.) |
| TCTTATCCACTATCCTTTCCTACGTGGTGTTCGTTTAGTGCGGAGTCACCTAGTGCAG | 8560 fluorescence intensity (a.u.) |
| ATGTTGTCGAGCTGGGGTCGCCGTCATCAACTGTATGGAGCGGAGTCACCTAGTGCAG | 4000 fluorescence intensity (a.u.) |
| AGCCATACCCCGCACACCACGCCACGCAGATCTTTTCTCCCGGAGTCACCTAGTGCAG | 4860 fluorescence intensity (a.u.) |
| ACAGTGATGCCCCGCCGCCGCCACCTCCACCACCCTCTCACGGAGTCACCTAGTGCAG | 3160 fluorescence intensity (a.u.) |
| TTTTCTAGAAACGTTACCACGTGTCGGCTCAGAAAGGCCGCGGAGTCACCTAGTGCAG | 9620 fluorescence intensity (a.u.) |
| AAATCTTCTTTACTACAATTTGCATTGGATGACTATTTCTCGGAGTCACCTAGTGCAG | 3200 fluorescence intensity (a.u.) |
| CTTAGAATAGTATGGAGGACACAATAGCTGGACAACAAGGCGGAGTCACCTAGTGCAG | 24000 fluorescence intensity (a.u.) |
| TCCCCTTCAGCTGATGGTGCGTGGCAGCAGGCAAGCCCGCCGGAGTCACCTAGTGCAG | 5070 fluorescence intensity (a.u.) |
| GGAGACAAGAGTCACCTCGTGTGAGGCCCCGATCCGGTGACGGAGTCACCTAGTGCAG | 32400 fluorescence intensity (a.u.) |
| GGCAACAGGTCAAACCTCAAGCGTCAGCGTCAATGGTTGTCGGAGTCACCTAGTGCAG | 5120 fluorescence intensity (a.u.) |
| ATGGGTTGTTCAACACGTGTATTTCTTTTCATGCAGAATCCGGAGTCACCTAGTGCAG | 8500 fluorescence intensity (a.u.) |
| ATCTTATGGAATCCTATGAAATTCATATGGAATGCCTAATCGGAGTCACCTAGTGCAG | 65000 fluorescence intensity (a.u.) |
| AGAATCTTGGCACGTGGAGCGTGCCACCGTCAATACTCATCGGAGTCACCTAGTGCAG | 4820 fluorescence intensity (a.u.) |
| TCGCAGCCGGCGATCGACAGCAGCGTCATCGTGGTGGTGGCGGAGTCACCTAGTGCAG | 6520 fluorescence intensity (a.u.) |

Single entries from above:
binding signal with GTTTGAATAGGTCTTTCGTCCCACGTGGCATTGACGTGGCCGGAGTCACCTAGTGCAG is entered as 45700 fluorescence intensity (a.u.)
binding signal with ACAGTGATGCCCCGCCGCCGCCACCTCCACCACCCTCTCACGGAGTCACCTAGTGCAG is entered as 3160 fluorescence intensity (a.u.)

Carrying on.

| Sequence | binding signal |
| --- | --- |
| GATAATCACTTTCCCTTTACATATCTGCATCAACTTTCTCCGGAGTCACCTAGTGCAG | 20400 fluorescence intensity (a.u.) |
| GTAGTTTCTTTTACAGCATTGGCTTTAAGTCACCAAGAACCGGAGTCACCTAGTGCAG | 5060 fluorescence intensity (a.u.) |
| TGCGATTGATTCGGTATTAGAGCCTGCATACGTGTCATCTCGGAGTCACCTAGTGCAG | 22100 fluorescence intensity (a.u.) |
| GCAAACGAAGCAATCGGTTAGCGTCCAGGATCACCTCCAGCGGAGTCACCTAGTGCAG | 3670 fluorescence intensity (a.u.) |
| GTGCAGGATTCTTTCGTTGCCATGTTGTCACTCACCCGTGCGGAGTCACCTAGTGCAG | 5070 fluorescence intensity (a.u.) |
| GTTAATCTCAATAAAATACTTAGCTCCATAAATAATTTTGCGGAGTCACCTAGTGCAG | 36700 fluorescence intensity (a.u.) |
| CTACTTGCTGATCTACTTTTACGCTGGCAACTAGCGAGTACGGAGTCACCTAGTGCAG | 3640 fluorescence intensity (a.u.) |
| ATATCCATTTTCTCGTCAATGCCACGGCATGTTTGAGTTACGGAGTCACCTAGTGCAG | 4280 fluorescence intensity (a.u.) |
| TTTGTGTGTGTGTTGTTGGTCGGGTGGGGTCGCCGGCGCCCGGAGTCACCTAGTGCAG | 4270 fluorescence intensity (a.u.) |
| AAGGGGATATGGTGGTCATGAATAGATAGATACGTTAGGTCGGAGTCACCTAGTGCAG | 3420 fluorescence intensity (a.u.) |
| CGGAAGTACGGGCTGCCGCGGGCTGCGACGTGCACCCGTTCGGAGTCACCTAGTGCAG | 3450 fluorescence intensity (a.u.) |
| CCGGACGCCAGCTCACGAATATCCACCCGATTTAATCCCGCGGAGTCACCTAGTGCAG | 5900 fluorescence intensity (a.u.) |
| CTGGAGGGATTCACCTGGAGATGACAGGGCAGAACGTTACCGGAGTCACCTAGTGCAG | 5600 fluorescence intensity (a.u.) |
| ACTGCTCTGATACCTTTGTCAGATCCCGTGATTAGAAATGCGGAGTCACCTAGTGCAG | 3440 fluorescence intensity (a.u.) |
| GCACGAGCCCAACACCAGTCGTGTCATGTCGTGCTTGGGTCGGAGTCACCTAGTGCAG | 4460 fluorescence intensity (a.u.) |
| TGCGAAGAGTCAATGATGTCATATATTTCAAAACGGAGAGCGGAGTCACCTAGTGCAG | 20800 fluorescence intensity (a.u.) |
| CCGCCTACGCCACTCGCTTGCGTGGCTTCGCTCCCACCGACGGAGTCACCTAGTGCAG | 8660 fluorescence intensity (a.u.) |
| CTCGGGTGGGCCACACATGGGCTGTCAGCCCATCACCAAGCGGAGTCACCTAGTGCAG | 3240 fluorescence intensity (a.u.) |
| GACTAGTGGGCCCACGCAGCATGATGGTCCACACGTCAGTCGGAGTCACCTAGTGCAG | 5840 fluorescence intensity (a.u.) |
| AAGAACATCATCATGACGTCGGTGAACGAGGCGTGGGCGGCGGAGTCACCTAGTGCAG | 4920 fluorescence intensity (a.u.) |
| ATCTCGTCCAGATAGTGCCTATAGTAACCTGCCAAATAAACGGAGTCACCTAGTGCAG | 3420 fluorescence intensity (a.u.) |
